# Data taken from PubChem BioAssay AID1671190 (National Center for Advancing Translational Sciences (NCATS), 2021).
# Chains of the proteins cited; added tags and fusions are not shown. Lines headed by an entry give the natural chain unless they say otherwise; changes in a name come on top.
# UniProt P18054: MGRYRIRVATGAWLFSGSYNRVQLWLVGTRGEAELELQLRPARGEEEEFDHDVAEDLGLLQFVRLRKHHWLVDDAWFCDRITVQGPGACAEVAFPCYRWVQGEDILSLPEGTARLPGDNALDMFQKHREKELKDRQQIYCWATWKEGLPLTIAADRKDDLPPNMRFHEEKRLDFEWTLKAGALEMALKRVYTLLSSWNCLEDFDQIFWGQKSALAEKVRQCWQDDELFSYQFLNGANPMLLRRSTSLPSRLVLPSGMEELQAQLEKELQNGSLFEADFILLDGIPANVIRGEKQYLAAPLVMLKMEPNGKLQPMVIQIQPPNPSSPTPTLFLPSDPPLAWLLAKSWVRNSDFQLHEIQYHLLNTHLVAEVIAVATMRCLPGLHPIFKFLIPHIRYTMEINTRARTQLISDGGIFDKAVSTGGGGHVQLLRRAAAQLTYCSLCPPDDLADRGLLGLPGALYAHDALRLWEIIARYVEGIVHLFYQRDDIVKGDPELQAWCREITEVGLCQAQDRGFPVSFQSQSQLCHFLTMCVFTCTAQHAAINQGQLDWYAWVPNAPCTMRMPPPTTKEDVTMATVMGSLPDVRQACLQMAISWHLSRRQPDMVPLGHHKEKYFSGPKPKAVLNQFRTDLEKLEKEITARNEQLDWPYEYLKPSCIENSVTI
# “And” between values parts separate entries of the source, which are not always exact repeats. Equal values may be shown once. The whole screen tested about 580,000 compounds, of which about 6,100 (1.1%) were called active. The shares of active, inactive and inconclusive entries below differ from those in the screen. Calls come from the whole dose curve; as a rule, active = well fitted inhibition curve with a large enough effect; inconclusive = small, poorly fitted or top-dose-only effect, or another doubt; inactive = no such curve, though single readings can be large or run the other way. A potency beside an inconclusive call is a rough fit, not a confirmed value.
# Molecular target: Polyunsaturated fatty acid lipoxygenase ALOX12 (Homo sapiens) (UniProt P18054)
# Assay: Primary qHTS assay for inhibitors of human arachidonate 12S-lipoxygenase (ALOX12): Round 2
# Conditions: purified 12hLO, xylenol orange hydroperoxide absorbance; activity change, negative = inhibition: at 108 µM (top of the series) unless noted
# Outline: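 Purified human 12hLO (150 nM final) in 25 mM Hepes, 0.01% Triton X-100, pH 7.0 was preincubated 15 min at room temperature with compound. Then 40 uM arachidonic acid was added, 30 min. Hydroperoxide was read by Fe-XO absorbance ratio 573/405 nm.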
# % is set by controls: 0 for no effect and ±100 for the full control effect; potency is the fitted concentration of half-maximal effect.
SMILES,"activity change, negative = inhibition",Potency
COc1cc(/C=C(/C#N)c2nc3ccccc3[nH]2)cc(Cl)c1OC(C)C,inactive: 30.3%,–
CCN(CC)CCn1c2ccc(Cl)cc2c2nc(C)sc21,–,"inconclusive: 11.2 µM [inhibitor, full curve, poor fit]"
Cc1ccc(N(C)S(=O)(=O)c2c(-c3cccc(F)c3)csc2C(=O)NCc2cccnc2)cc1,inactive: -0.279%,–
c1ccc(-c2nnc(CN3CCCCC3)o2)cc1,–,"inconclusive: 39.8 µM [inhibitor, single point]"
CCOc1ccc(C(=O)CCC(=O)N(CC)CC(=O)Nc2c(F)cccc2F)cc1,–,"inconclusive: 44.7 µM [inhibitor, partial curve, poor fit]"
O=c1oc2ccccc2cc1-c1csc(Nc2ccc(O)cc2)n1,–,"inconclusive: 17.8 µM [inhibitor, full curve, poor fit]"
CC(c1ccccc1)N(C)C(=O)CCCc1c[nH]c2ccccc12 (stereo unspecified),inactive: -5.93%,–
CO[C@H]1[C@H](NC(=O)C(C)C)c2ccccc2C12CCN(Cc1c(C)nn(C)c1Cl)CC2,–,"inconclusive: 100 µM [inhibitor, single point]"
CSc1ccccc1C(=O)N1CCOC(Cc2cccc(F)c2)C1 (stereo unspecified),inactive: 34.3%,–
COc1ccc(S(=O)(=O)N2CCN(Cc3cccc(OC)c3)CC2)cc1,–,"inconclusive: 79.4 µM [inhibitor, single point]"
CC(C)CN(CCCNC(=O)c1cc(=O)[nH]c2ccc(S(=O)(=O)N3CCCC3)cc12)CC(C)C,inactive: -22.6%,–
COc1cc(OC)c(NS(=O)(=O)c2cc(Br)cnc2N)cc1Cl,–,"inconclusive: 44.7 µM [inhibitor, partial curve, poor fit]"
COc1ccc(Cn2c(SCc3cc(C)ccc3C)nc3cc(OC)c(OC)cc3c2=N)cc1,–,"inconclusive: 70.8 µM [inhibitor, partial curve, poor fit]"
CCOc1ccc(CN(C)CC(=O)Nc2ccccc2C(=O)NC2CC2)cc1,inactive: 0.696%,–
Clc1ccccc1NN(Cc1ccncc1)c1ccccc1Cl,–,"inconclusive: 50.1 µM [inhibitor, partial curve, poor fit]"
Cc1sc(NCCC(C)C)nc1-c1ccc(NS(C)(=O)=O)cc1,–,"inconclusive: 20 µM [inhibitor, partial curve, poor fit]"
CCc1cnc2c(c1SCc1ccccc1C)c(=O)n(C)c(=O)n2C,inactive: -16.6%,–
Cc1noc2c(NC3CCN(C)CC3)cc(-c3ccc(F)cc3)nc12,inactive: -48.1% [at 176 µM],–
COc1ccc(OCc2cc(C(=O)NC3CCOCC3)no2)c2ccccc12,–,"inconclusive: 39.8 µM [inhibitor, partial curve, poor fit]"
CC(=O)Nc1ccc(/C=N/NC(=S)NC(C)C)cc1,–,"inconclusive: 50.1 µM [inhibitor, partial curve, poor fit]"
Nc1c(C(=O)NCc2cccnc2)sc(=S)n1-c1ccccc1,inactive: -12.5%,–
O=C(NNC(=O)c1cnccc1C(F)(F)F)c1ccccc1,–,"inconclusive: 141 µM [inhibitor, single point]"
Cc1nc(-c2ccccc2C(C)C)nc(NCc2ccc(-c3cccnc3)cc2)c1C,–,"inconclusive: 14.1 µM [inhibitor, partial curve, poor fit]"
Cn1cccc1C(=O)OCC(=O)Nc1ccc2c(c1)OCO2,inactive: 1.64%,–

# In the list so far, these contain an aryl methoxy group:
SMILES,"activity change, negative = inhibition",Potency
COc1cc(/C=C(/C#N)c2nc3ccccc3[nH]2)cc(Cl)c1OC(C)C,inactive: 30.3%,–
COc1ccc(S(=O)(=O)N2CCN(Cc3cccc(OC)c3)CC2)cc1,–,"inconclusive: 79.4 µM [inhibitor, single point]"
COc1cc(OC)c(NS(=O)(=O)c2cc(Br)cnc2N)cc1Cl,–,"inconclusive: 44.7 µM [inhibitor, partial curve, poor fit]"
COc1ccc(Cn2c(SCc3cc(C)ccc3C)nc3cc(OC)c(OC)cc3c2=N)cc1,–,"inconclusive: 70.8 µM [inhibitor, partial curve, poor fit]"
COc1ccc(OCc2cc(C(=O)NC3CCOCC3)no2)c2ccccc12,–,"inconclusive: 39.8 µM [inhibitor, partial curve, poor fit]"

# (cont.)

SMILES,"activity change, negative = inhibition",Potency
O=C(NCCc1ccccc1)[C@H]1CN(Cc2ccccc2)C[C@H]1C(=O)O,inactive: 14.8%,–
CCN(Cc1ccccc1)Cc1c(O)ccc2c(=O)c(-c3ccc(Cl)cc3)coc12,–,"inconclusive: 5.62 µM [inhibitor, partial curve, poor fit]"
Cc1ccc(NC(=O)CCC(=O)c2ccc(Cl)s2)nc1,–,"inconclusive: 25.1 µM [inhibitor, single point]"
COc1ccc(C(=O)COC(=O)c2ccc(Cl)nc2)c(OC)c1,–,"inconclusive: 44.7 µM [inhibitor, partial curve, poor fit]"
CC1CC(C)CN(C(=O)C2CCCN(c3ncnc4c3nc3n4CCCCC3)C2)C1 (stereo unspecified),–,"inconclusive: 126 µM [inhibitor, partial curve, poor fit]"
Cc1cccnc1NC(N)=S,–,"inconclusive: 50.1 µM [inhibitor, partial curve, poor fit]"
COC[C@@H]1[C@H](C(=O)N2CCN(c3ccccn3)CC2)CCC(=O)N1C,inactive: 22%,–
Cc1ccc2c(=O)cc(C(=O)NCC(c3cccs3)N3CCCCCC3)oc2c1 (stereo unspecified),–,"inconclusive: 39.8 µM [inhibitor, single point]"
Cc1ccc2cccc(NC(=O)c3cccc4c(Cl)cccc34)c2n1,inactive: -25.6%,–
COc1ccc(NC(=O)CN(C)C(=O)CN2C(=O)NC3(CCCCC3)C2=O)cc1,inactive: 114%,–
O=C(CSc1nnc(-c2c[nH]c3ccccc23)o1)N1CCNC1=O,inconclusive: -36.8% [inhibitor],–
O=C(Nc1ccn(Cc2c(F)c(F)c(F)c(F)c2F)n1)c1ccc(COc2ccccc2Cl)cc1,inactive: -6.58%,–
CCN1CCN(c2ccc(S(=O)(=O)N3CCCCC3)cc2NC(=O)c2ccc(OC(F)F)cc2)CC1,–,"inconclusive: 44.7 µM [inhibitor, partial curve, poor fit]"
Cc1ccc(NC(=O)CSc2nnc(Cc3ccccc3)n2-n2cccc2)c(C)c1,inactive: -31%,–
COc1ccc(C(=O)NC(=S)N2CCC(C)CC2)cc1Br,–,"inconclusive: 44.7 µM [inhibitor, partial curve, poor fit]"
CCCN1C(=O)Cc2ccccc2C1C(=O)NCc1ccc(Br)cc1 (stereo unspecified),–,"inconclusive: 14.1 µM [inhibitor, full curve]"
O=C1NC2(CCc3ccccc3C2)C(=O)N1CCOc1cccc(Cl)c1 (stereo unspecified),–,"inconclusive: 70.8 µM [inhibitor, partial curve, poor fit]"
Cc1cc(C)c2nc(N(CCCN(C)C)C(=O)c3ccc4c(c3)OCCO4)sc2c1,–,"inconclusive: 100 µM [inhibitor, partial curve, poor fit]"
CCCCCC(=O)Nc1ccc(C(=O)COC(=O)c2ccccn2)cc1,–,"inconclusive: 70.8 µM [inhibitor, partial curve, poor fit]"
CO[C@@H]1CN(C)C(=O)c2ccc(NS(=O)(=O)c3c(C)noc3C)cc2OC[C@@H](C)NC[C@@H]1C,–,"inconclusive: 35.5 µM [inhibitor, partial curve, poor fit]"
CCOC(=O)c1cccc(Nc2nc3ccccc3nc2NS(=O)(=O)c2ccccc2)c1,inactive: -21.6%,–
O=C1c2ccccc2C(=O)c2cc(S(=O)(=O)Nc3ccccc3)ccc21,inactive: -23.3%,–
O=S(=O)(Nc1ccc2cn[nH]c2c1)c1cc(Br)ccc1Br,–,"inconclusive: 50.1 µM [inhibitor, partial curve, poor fit]"
O=C(CCN1C(=O)/C(=C/c2ccccc2Cl)SC1=S)NC1C=CS(=O)(=O)C1 (stereo unspecified),inactive: -15.2%,–

SMILES,"activity change, negative = inhibition",Potency
O=C(Nc1cc(Cl)cc(Cl)c1)c1coc(=O)c(Br)c1,–,"inconclusive: 2 µM [inhibitor, full curve, poor fit]"
CC1CCN(c2nc3nonc3nc2Nc2ccc(F)cc2)CC1,–,inactive
Cc1ccc(NC(=O)Cn2nc3c(cc2=O)CCCCC3)c(Cl)c1,inactive: 15.3%,–
c1ccc(-c2noc(-c3cncnc3NCC3CCCO3)n2)cc1 (stereo unspecified),inactive: 54.4%,–
CC(C)NC(=O)Nc1ccc(CNC(=O)c2nccnc2N)cc1,–,"inconclusive: 39.8 µM [inhibitor, full curve, poor fit]"
COc1ccc(CN2CCN(Cc3cc4ccccc4[nH]3)CC2CCO)c(C)c1C (stereo unspecified),–,"inconclusive: 50.1 µM [inhibitor, partial curve]"
CCOc1ccc(C(=O)Cn2cnc3ccccc3c2=O)cc1,–,"inconclusive: 56.2 µM [inhibitor, partial curve, poor fit] and inconclusive: 10 µM [inhibitor, partial curve, poor fit]"
Cc1nc2c(cc1NC(=O)c1ccccc1)nc(C)n2Cc1ccccc1,inactive: 2.31%,–
O=C(NNS(=O)(=O)c1ccc(Br)cc1)c1cccs1,–,"inconclusive: 39.8 µM [inhibitor, partial curve, poor fit]"
Cc1noc(C)c1-c1nc(CS(=O)(=O)c2ccccc2)no1,inactive: -0.0816%,–
NNc1nc(-c2ccccc2)cc(-c2ccccc2O)n1,inactive: -7.22%,–
CN1/C(=C/C(=O)COC(=O)CN2C(=O)C3CC=CCC3C2=O)C(C)(C)c2ccccc21 (stereo unspecified),inactive: -3.44%,–
COc1ccc(N2CCCCS2(=O)=O)cc1S(=O)(=O)NCCc1ccccc1,–,"inconclusive: 39.8 µM [inhibitor, partial curve, poor fit]"
Oc1ccc(C[C@H]2CNCCN2CC2(c3ccccc3)CC2)cc1,inactive: -27.1%,–
c1cncc(CNC[C@H]2Cn3c(-c4ccc5c(c4)OCCO5)cnc3CO2)c1,inactive: 49.5% [at 176 µM],–
Oc1ccc(-c2nc(-c3ccc(O)c(O)c3)cs2)cc1,–,"inconclusive: 5.62 µM [inhibitor, full curve, poor fit]"
CNC(=S)N(Cc1ccc2c(c1)OCO2)C1CC(=O)N(c2ccc(F)cc2)C1=O (stereo unspecified),–,"inconclusive: 44.7 µM [inhibitor, partial curve, poor fit]"
O=c1[nH]cnc2c1ccn2C1OC(CO)C(O)C1O (stereo unspecified),inactive: -8.4%,–
Cc1cc(NC(=O)CSc2nccn2-c2cccc(Cl)c2)no1,–,inactive
CCCSc1ncc(Cl)c(C(=O)N2CCN(c3ccc(OC)cc3)CC2)n1,inactive: -27.1%,–
COc1cc2c(cc1OC)CN(C(C)C(=O)N1CCc3ccccc31)CC2 (stereo unspecified),inactive: 10.3%,–
Cc1cc([N+](=O)[O-])ccc1NCc1ccccc1[N+](=O)[O-],–,"inconclusive: 112 µM [inhibitor, partial curve, poor fit]"
Cc1ccc(C(=O)CCC(=O)OCc2nnc(-c3ccccc3)o2)cc1,inactive: 20.3%,–
